Results from paper PMC6050706.
These are yes or no findings as the source states them, for the method shown. Some results given as binding are weak or reduced against the parent protein; the word gives no strength.

Tests used:
Assay in all cases: peptide or protein array; NAPPA: C-terminally GST-tagged P. vivax fragments expressed in situ from printed cDNA with rabbit reticulocyte lysate and captured by spotted anti-GST polyclonal antibody; 1 µg cDNA of N-terminally Halo-tagged Pv12 (query) co-expressed in the same IVTT mix; 90 min at 30 °C and 30 min at 15 °C; detected with anti-Halo antibody; triplicate arrays, 16 sub-arrays each; median normalized value > 1 taken as positive
[1] = target: 6-Cysteine protein 41 (Pv41), C-terminal GST tag, on the array (Plasmodium vivax) (UniProt A5KAP6)
[2] = target: Merozoite surface protein 8 (PvMSP8), C-terminal GST tag, on the array (Plasmodium vivax) (UniProt A5KAU1)
[3] = target: Merozoite surface protein 1 (PvMSP1) 42 kDa fragment, C-terminal GST tag, on the array (Plasmodium vivax) (UniProt A5K724)

Measured: binding

6-Cysteine protein 12 (Pv12), N-terminal Halo tag, query protein (from UniProt A5K1W7 27-336) (domain or fragment)
binds: all assays above
